The subject of the assay is Aspergillus fumigatus. The assay is described as follows: Antifungal activity against Aspergillus fumigatus 293 by Etest. It counts as functional. Put shortly: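 Susceptibility of A. fumigatus 293 by Etest. Amphotericin B read as MIC; micafungin read as minimum effective concentration.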

≈ marks a conversion by molar mass, not a printed value.

Turning to `C[C@@H]1[C@H](O)[C@@H](C)/C=C/C=C/C=C/C=C/C=C/C=C/C=C/[C@H](O[C@@H]2O[C@H](C)[C@@H](O)[C@H](N)[C@@H]2O)C[C@@H]2O[C@](O)(C[C@@H](O)C[C@@H](O)[C@H](O)CC[C@@H](O)C[C@@H](O)CC(=O)O[C@H]1C)C[C@H](O)[C@H]2C(=O)O` [AMPHOTERICIN B], the MIC (as a rule, the lowest concentration that inhibits growth of the organism) came to 0.25 µg/mL (≈ 0.271 µM).

The values above are taken from ChEMBL document CHEMBL1275536, “Efficacy of single-dose liposomal amphotericin B or micafungin prophylaxis in a neutropenic murine model of invasive pulmonary aspergillosis” (2008).
